Reference: patent US9176124B2, “Method for measurement of equol in biological sample by immunoassay, kit for the measurement, and method for determination of equol production ability of subject” (OTSUKA PHARMACEUTICAL CO., LTD., priority 2009, dated 2015)
At least one compound was matched to its structure with a doubt left.

Tested on: anti-equol rabbit antiserum (primary antibody)
Assay: Cross-reactivity of the primary antibody by competitive ELISA (Test Example 2)
Format: binding
Details: (IC20 of S-equol/IC20 of each isoflavone, etc.)×100; S-equol assumed 100%; horseradish peroxidase-labeled S-equol as labeled antigen; samples in 100% charcoal-treated human serum
Description: The above cross-reactivity can be explained as follows. Specifically, the above cross-reactivity indicates a ratio (%) of the concentration (IC20) of unlabeled S-equol at which the binding reaction of labeled S-equol to the anti-equol antibody can be inhibited by 20%, to the concentration (IC20) of each isoflavone and the like at which the binding reaction of labeled S-equol to the anti-equol antibody can be inhibited by 20%. More specifically, in the competitive reaction between labeled S-equol and unlabeled S-equol, the concentration of unlabeled S-equol at which the binding of labeled S-equol to the antibody is 80 is determined, assuming that the binding of labeled S-equol alone to the antibody is 100. Similarly, each unlabeled isoflavone and the like are competitively reacted with labeled S-equol, and the concentration of each isoflavone and the like at which binding of labeled S-equol to the antibody is 80 is determined.
The thus-determined ratio (expressed in percentage) between the concentration (IC20) of the unlabeled S-equol and the concentration (IC20) of each isoflavone and the like is referred to as the cross-reactivity. […]
Herein, the cross-reactivity rate is determined by competitive ELISA, using S-equol as the standard antigen used for the preparation of a standard curve, as well as the labeled antigen that competes with equol in a biological sample. […]

| Compound | Cross-reactivity Rate [%] |
| --- | --- |
| C[C@]12CC[C@@H]3c4ccc(O)cc4CC[C@H]3[C@@H]1CC[C@@H]2O [Estradiol] | 0.01 |
| COc1ccc(-c2coc3cc(O)ccc3c2=O)cc1 [Formononetin] | 0.21 |
